Measured values reported in paper PMC10916551, “NNMT/1‐MNA Promote Cell‐Cycle Progression of Breast Cancer by Targeting UBC12/Cullin‐1‐Mediated Degradation of P27 Proteins” (Advanced Science, 2023).
These are yes or no findings as the source states them, for the method shown. In cells and extracts the contact can be indirect. Some binding calls cover weakened binding; strength is not graded here.

Chains of the proteins cited; added tags and fusions are not shown.
UniProt P11142: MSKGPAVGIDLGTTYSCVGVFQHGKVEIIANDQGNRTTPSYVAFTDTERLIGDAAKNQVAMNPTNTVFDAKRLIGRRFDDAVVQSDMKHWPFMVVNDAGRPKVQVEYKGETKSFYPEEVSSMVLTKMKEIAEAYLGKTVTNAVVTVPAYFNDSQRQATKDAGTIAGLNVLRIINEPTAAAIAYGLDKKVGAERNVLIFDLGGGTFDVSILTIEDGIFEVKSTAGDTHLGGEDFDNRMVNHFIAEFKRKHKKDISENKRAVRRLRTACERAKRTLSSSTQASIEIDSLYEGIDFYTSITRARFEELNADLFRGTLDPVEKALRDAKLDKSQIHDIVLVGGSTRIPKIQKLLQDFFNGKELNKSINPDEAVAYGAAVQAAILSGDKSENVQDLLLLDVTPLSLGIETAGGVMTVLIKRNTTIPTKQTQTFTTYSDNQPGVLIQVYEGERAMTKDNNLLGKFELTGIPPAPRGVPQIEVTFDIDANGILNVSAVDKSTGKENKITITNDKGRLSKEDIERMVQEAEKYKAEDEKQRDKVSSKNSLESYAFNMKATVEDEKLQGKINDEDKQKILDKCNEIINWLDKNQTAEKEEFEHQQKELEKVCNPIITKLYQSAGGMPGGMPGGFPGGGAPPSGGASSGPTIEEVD
UniProt P61081: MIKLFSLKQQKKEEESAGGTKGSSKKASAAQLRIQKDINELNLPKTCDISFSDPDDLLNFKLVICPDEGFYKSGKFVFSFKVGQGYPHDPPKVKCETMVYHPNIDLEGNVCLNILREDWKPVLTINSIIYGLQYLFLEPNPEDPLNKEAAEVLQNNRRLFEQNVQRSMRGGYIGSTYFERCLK

Target: HSC70 (human (endogenous in MCF7)) (UniProt P11142)
Experiment: co-IP; MCF7 lysate in IP lysis buffer; 800 µg proteins with 8 µg antibody against HSC70 overnight at 4 °C, protein A+G agarose 4 h at 4 °C, washed with cold PBS; anti-UBC12 immunoblot

Substance: UBC12 (from UniProt P61081 1-183) (enzyme)
- binding: binds
